The exact form of at least one protein or probe is not confirmed. For part of these data: Negatives hold for the conditions tested.
Experiments:
Experiment in all cases: EMSA
[1] = tested on: MBP-GmRVE5 (Glycine max); conditions: LightShift EMSA kit binding buffer (composition not stated), 2 ug MBP-GmOBP3, 10 min then 20 min with probe at room temperature, 7% PAGE; pull-down 30 min at …; recombinant protein; protein details: MBP; label: biotin
[2] = tested on: GST-GmHDA7 (Glycine max); conditions: alone, also no supershift with MBP-GmRVE5 without GmHE13; LightShift EMSA kit binding buffer (composition not stated), 2 ug MBP-GmOBP3, 10 min then 20 min with probe at room temperature, 7% PAGE; pull-down 30 min at RT; recombinant protein; protein details: GST; label: biotin
[3] = tested on: MBP-GmRVE5 + His-GmHE13Sin3 + GST-GmHDA7; conditions: supershift of the GmRVE5-DNA complex; LightShift EMSA kit binding buffer (composition not stated), 2 ug MBP-GmOBP3, 10 min then 20 min with probe at room temperature, 7% PAGE; pull-down 30 min at RT; recombinant protein; protein details: MBP,His,GST; label: biotin

Chains of the proteins cited; added tags and fusions are not shown. A line that says so, or that is headed by a name, gives the form on record, which may keep a tag or linker.
GST-GmHDA7 (Glycine max), one chain, as listed by the source: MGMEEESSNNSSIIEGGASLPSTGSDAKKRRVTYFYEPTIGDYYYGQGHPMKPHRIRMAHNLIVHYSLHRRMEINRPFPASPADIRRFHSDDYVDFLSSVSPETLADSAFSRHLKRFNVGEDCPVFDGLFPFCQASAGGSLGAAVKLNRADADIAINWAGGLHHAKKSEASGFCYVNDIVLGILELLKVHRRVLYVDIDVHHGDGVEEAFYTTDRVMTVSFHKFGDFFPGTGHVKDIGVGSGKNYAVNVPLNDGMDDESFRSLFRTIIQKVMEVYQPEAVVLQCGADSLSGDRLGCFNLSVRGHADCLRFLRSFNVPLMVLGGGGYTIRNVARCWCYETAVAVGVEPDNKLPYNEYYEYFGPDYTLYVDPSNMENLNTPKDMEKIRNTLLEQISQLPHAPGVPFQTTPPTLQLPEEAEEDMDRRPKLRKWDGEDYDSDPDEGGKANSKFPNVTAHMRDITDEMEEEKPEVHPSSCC

Sequence	binding result [1]	binding result [2]	binding result [3]
AGTACAAATATCTATAGTACAAATATCTAT (double strand) [GmEXLB1-2 EE probe]	binds	no binding	binds
AAGTAAAATATCTTAAAGTAAAATATCTTA (double strand) [GmEXLB1-1 EE probe]	binds	no binding	binds
